# Test results published in PubChem BioAssay AID1347076 (National Center for Advancing Translational Sciences (NCATS), 2019).
# Hit rate of the full screen: of about 400,000 compounds, about 13,000 (3.2%) were called active. The shares of active, inactive and inconclusive entries below differ from those in the screen. The call rests on the fitted dose curve; in most records, active means well fitted cell-killing curve with a large enough effect; inconclusive means small, poorly fitted or top-dose-only effect, or effect the other way; inactive means flat fitted curve, though single readings scatter. Potencies of inconclusive entries are doubtful fits and often do not repeat.
# Test: qHTS assay for MDR1-selective chemotherapeutics: Primary screen using the drug-selected MDR subline cells KB-V1; further: nearly all actives have a fitted effect of over 60% in size
# Details: KB-V1 MDR cells viability, CellTiter-Glo, 72 h; series mostly up to 46.1 µM
# Summary of the method: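 Readout: CellTiter-Glo luminescence, 10 min after addition. Cells: KB-V1 MDR subline, 72 h at 37 degrees C with compound. Analysis: corrected, normalized data fitted to concentration-effect curves.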
# Potency means the concentration at half of the fitted maximal effect.
row,SMILES,Potency
1,CCCc1c(C(=O)N/N=C(\C)c2ccc(O)cc2)nnn1-c1nonc1N,"inconclusive: 29.1 µM [rising, single point]"
2,O=C(Cc1c(F)cccc1Cl)Nc1ccc(S(=O)(=O)Nc2nccs2)cc1,inactive
3,Cc1cc(NC(=O)c2ccc(C)s2)n(-c2nc3ccccc3[nH]2)n1,inactive
4,CCNC(=O)CN(c1ccc(Oc2ccccc2)cc1)S(=O)(=O)c1ccccc1,"inconclusive: 20.6 µM [cytotoxic, single point]"
5,Cc1ccc(C)c(CSc2cn(CCNC(=O)c3ccccc3F)c3ccccc23)c1,"inconclusive: 16.4 µM [cytotoxic, partial curve]"
6,Cc1cccc(NC(=S)NNC(=O)c2ccccc2OC(F)F)c1,active: 16.4 µM
7,O=C(CCCN1C(=O)c2ccccc2C1=O)Nc1ccc(Br)cn1,inactive
8,CC(C)(C)OC(=O)N1Cc2ccccc2C[C@H]1C(=O)NCC(=O)Nc1ccc2c(c1)OCCO2,inactive
9,c1ccc(-c2noc(-c3ccc4ccccc4c3)n2)nc1,active: 5.8 µM
10,O=C(COc1cccc2ccccc12)N1c2ccccc2CCc2ccccc21,active: 16.4 µM
11,CC(=O)N(CCCN(C)C)CCC(C)CCC=C(C)C (configuration not stated),"inconclusive: 16.4 µM [cytotoxic, partial curve, poor fit]"
12,CC1(C(=O)NCc2ccccc2Br)CCN1C(=O)C1(c2ccc(Cl)cc2)CC1 (configuration not stated),"inconclusive: 8.2 µM [cytotoxic, partial curve]"
13,COc1ccc(/C=C2\C(=O)N(c3c(Cl)cc(Cl)cc3Cl)N=C2NC(=O)c2cccc([N+](=O)[O-])c2)cc1,"inconclusive: 18.4 µM [cytotoxic, single point]"
14,O=C(/C=C/c1cccc(F)c1)OCC(=O)c1ccc[nH]1,inactive
15,CCOc1ccc(NC(=O)CN(C)C(=O)CCCOc2ccc(Br)cc2)cc1OCC,"inconclusive: 8.2 µM [cytotoxic, partial curve]"
16,Cc1ccc(N2CC(C(=O)Nc3ccccc3C(=O)NC3CCCCC3)CC2=O)cc1 (configuration not stated),active: 3.66 µM
17,CCOc1ccccc1C(C(=O)NC1CCCC1)N(C(=O)c1csnn1)C1CC1 (configuration not stated),inactive
18,COc1ccccc1CNc1ncnc2cc(Cl)ccc12,"inconclusive: 11.6 µM [cytotoxic, partial curve]"
19,Cc1nn(C)cc1S(=O)(=O)Nc1ccc2c(c1)OCCO2,inactive
20,CN(Cc1cn(C)c2ccccc12)C(=S)Nc1cc(F)cc(F)c1,active: 18.4 µM
21,COc1cc(C2c3c(-c4ccccc4O)n[nH]c3C(=O)N2CCO)ccc1OCC(C)C (configuration not stated),inactive
22,CC1CCCN(Cc2c(O)ccc3c4c(c(=O)oc23)CCCC4)C1 (configuration not stated),"inconclusive: 1.03 µM [cytotoxic, full curve]"

# Two of these compounds, set out differently:
row | SMILES | Potency
15 | CCOc1ccc(NC(=O)CN(C)C(=O)CCCOc2ccc(Br)cc2)cc1OCC | inconclusive: 8.2 µM [cytotoxic, partial curve]
16 | Cc1ccc(N2CC(C(=O)Nc3ccccc3C(=O)NC3CCCCC3)CC2=O)cc1 (configuration not stated) | active: 3.66 µM
